Measured values from PubChem BioAssay AID2685 (National Center for Advancing Translational Sciences (NCATS), 2010).
Some of the results follow. These are further read-outs of the screen, such as a control signal, another cell line or another target. No call is given for them. The list favours compounds with an active or inconclusive main result. Words in brackets tell the shape of the fitted curve; partial curves, single points and poor fits give uncertain potencies.

Test: qHTS Assay for Lipid Storage Modulators in Drosophila S3 Cells;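 on cell number change: cells counted by Cell Tracker Red CMTPX staining in the red channel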
Conditions: BODIPY lipid droplet fluorescence, 18-24 h; for cell number change: measured here: cell count max response, cells fed with added oleic acid
Method in brief: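 Drosophila S3 cells loaded with oleic acid (400 uM, as added) and compounds at several concentrations; lipid droplets imaged by 488-nm laser-scanning cytometry, 500–530 nm intensity and object ratio to cell channel. Percent activity normalized to 20 uM Triacsin C.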

[1] = measured here: lipid fluorescence (Fed channel) AC50, cells fed with added oleic acid
[2] = measured here: cell number channel AC50, cells fed with added oleic acid

Compound | cell number change | AC50 [1] | AC50 [2]
COc1ccc(-n2nc3ccccc3n2)cc1 | 0.377% | – | –
O=C(NCC(c1cccs1)N1CCOCC1)C1CCN(S(=O)(=O)c2c(Cl)cccc2Cl)CC1 (stereo not given) | 29.1% | 23.1 µM [rising, single point] | –
O=C(NCc1ccccn1)Nc1ccc(Cl)cc1Cl | -1.62% | 0.562 µM [rising, full curve, poor fit] | –
CCCCN(C(=O)CSCC(=O)Nc1cccc(C)c1)c1c(N)n(CCCC)c(=O)[nH]c1=O | 76.5% | – | 16.4 µM [rising, partial curve]
CC(=O)Nc1nc2ccccc2[nH]1 | -15.2% | – | 2.59 µM [falling, single point]
C=CCOC(=O)CCCCCCCC | -18.5% | – | –
CC(C)COC(=O)N1CC(O)CC1C(=O)O (stereo not given) | 8.49% | – | –
O=C1NCCN1CCN1C(=O)c2ccccc2NC1c1ccccc1 (stereo not given) | 21.3% | 0.731 µM [rising, full curve, poor fit] | –
Cc1cc2cc(C)c(NCCNC(=O)c3cccs3)nc2cc1C | -25.7% | 13 µM [falling, single point] | –
Cc1cc(NC(=O)CSc2nc3cc(C)c(C)cc3cc2C)no1 | 14.9% | 29.1 µM [rising, single point] | –
Cc1ccc(C(C(=O)NCc2ccc(F)cc2)N(CCCO)C(=O)C2COc3ccccc3O2)o1 (stereo not given) | -7.66% | 1.64 µM [rising, partial curve, poor fit] | –
Cc1cccc(C)c1NC(=O)COC(=O)CNC(=O)C1CCCCC1 | 1.59% | – | –
CC(C)CN(C(=O)Cn1c(C(F)(F)F)nc2ccccc21)C1CCS(=O)(=O)C1 (stereo not given) | -0.98% | 0.231 µM [falling, full curve, poor fit] | –
CC(NC(=O)COC(=O)c1cc([N+](=O)[O-])ccc1N1CCOCC1)c1ccc(F)cc1 (stereo not given) | 97.3% | – | 9.2 µM [rising, partial curve]
CC(=O)Nc1ccc(Nc2nc(C)nc3c2oc2ccccc23)cc1 | -17.3% | 4.11 µM [rising, single point] | –
CC1CCN(CCc2nc3cc(NC(=O)COc4ccc(Cl)cc4)ccc3n2C)CC1 | 33% | 29.1 µM [rising, single point] | 1.84 µM [rising, full curve]
COc1cc2c(c(OC)c1OC)CCc1cnoc1-2 | 17.7% | 0.13 µM [rising, full curve, poor fit] | 6.51 µM [rising, single point]
CCCCCCCCOC(=O)c1nc(Cl)c(Cl)c(N)c1Cl | -44.5% | 29.1 µM [falling, single point] | 32.6 µM [falling, single point]
CCOc1ccc(S(=O)(=O)/N=C(/Nc2ccc(OC)cc2)c2ccccc2)cc1 | -0.578% | 16.4 µM [rising, single point] | –
O=C(COc1ccc(F)cc1)Nc1ccccc1N1CCOCC1 | 32.5% | 2.31 µM [rising, partial curve] | 2.91 µM [rising, partial curve]
CCOC(=O)CCC(=O)Nc1ccc(S(=O)(=O)N2CCCC2)cc1 | -77.4% | – | –

Looked up by structure from above:
Compound | cell number change | AC50 [1] | AC50 [2]
O=C(NCC(c1cccs1)N1CCOCC1)C1CCN(S(=O)(=O)c2c(Cl)cccc2Cl)CC1 (stereo not given) | 29.1% | 23.1 µM [rising, single point] | –
CCOC(=O)CCC(=O)Nc1ccc(S(=O)(=O)N2CCCC2)cc1 | -77.4% | – | –

(continued)

Compound | cell number change | AC50 [1] | AC50 [2]
Nc1ccc(-c2nc3ccccc3s2)cn1 | -8.57% | – | –
CCN1CCc2c(sc(NC(=O)c3ccc(C(=O)c4ccccc4)cc3)c2C(N)=O)C1 | -35.6% | 14.6 µM [falling, partial curve] | 8.2 µM [falling, partial curve]
CCOc1ccc(-c2csc(NC(=O)c3ccco3)n2)cc1 | -15.5% | – | –
O=C(CSc1nc2ccccc2s1)c1cc2ccccc2o1 | – | 0.13 µM [rising, full curve, poor fit] | 0.0651 µM [rising, full curve, poor fit]
CCC1(c2ccccc2)NC(=S)N(c2cccc(C)c2C)N1 (stereo not given) | 25.8% | 11.6 µM [rising, partial curve] | –
CC1(C)Cc2c(sc3[nH]c(=S)[nH]c(=O)c23)CO1 | 16.5% | – | 6.51 µM [rising, single point]
Cc1ccc(C(=O)OCc2nnc(-c3ccccc3)o2)o1 | -1.87% | 0.651 µM [rising, partial curve, poor fit] | –
CC(=O)Oc1ccc(/C=C2/C(=O)N(c3ccccc3)N=C2C)cc1 | -8.33% | – | –
COc1ccc(-n2c(O)c(/C=C3\C=Nc4ccccc43)c(=O)[nH]c2=O)cc1 | 12% | – | –
CCOC(=O)c1c(/N=C/N(C)C)sc(/C=N/Nc2ccccc2)c1-c1ccc(Cl)cc1 | -50.9% | 6.51 µM [falling, single point] | 8.2 µM [falling, partial curve, poor fit]
Cc1ccc(NC(=O)c2ccccc2NC(=O)c2cccnc2)cc1 | -6.82% | 10.3 µM [falling, partial curve] | –
Cc1cc(C)cc(N(CC(=O)N2CCN(c3ccccc3)CC2)S(=O)(=O)c2c(C)noc2C)c1 | 16.7% | 18.4 µM [rising, single point] | –
CCS(=O)(=O)N1N=C(c2ccc(NS(C)(=O)=O)cc2)CC1c1ccccc1 (stereo not given) | -29.5% | 2.31 µM [falling, partial curve] | 0.103 µM [falling, full curve, poor fit]
CC(C)C(=O)Nc1ccc(C(=O)NNC(=O)CCCOc2ccc(Cl)cc2Cl)cc1 | -2.79% | – | –
Cn1ccnc1SCC(=O)c1cccc(Br)c1 | 47.1% | – | 23.1 µM [rising, single point]
CC1(C)N=C2C(=[N+]1[O-])CCC/C2=N\O | 30.4% | – | 5.8 µM [rising, single point]
Cc1ccc(C(=O)C(C)OC(=O)CNS(=O)(=O)c2ccc(C)cc2)cc1 (stereo not given) | -7.94% | 0.092 µM [falling, full curve, poor fit] | –
Cc1cccc(/C=N/Nc2nncc3ccccc23)c1 | 35.2% | 10.3 µM [rising, partial curve] | 10.3 µM [rising, partial curve, poor fit]
O=C(Cc1cc(=O)oc2cc(O)ccc12)NCC1CCC(C(=O)O)CC1 (stereo not given) | 8.36% | – | –
CCOc1cc2[nH]c(=S)n(CCN3CCCCC3C)c(=O)c2cc1OCC (stereo not given) | -40.7% | 32.6 µM [falling, single point] | 29.1 µM [falling, single point]
COc1ccc(NC(=O)COC(=O)CCC(=O)c2cccs2)cc1OC | -54.5% | 3.66 µM [falling, partial curve, poor fit] | 5.17 µM [falling, partial curve, poor fit]

Compound | cell number change | AC50 [1] | AC50 [2]
Cc1ccc(C(=O)CSc2nc(O)cc(=O)[nH]2)cc1C | 32.9% | – | 32.6 µM [rising, single point]
CCOC(=O)c1ccc(NC(=S)Nc2cc(C)cc(C)n2)cc1 | -8% | – | –
COC(=O)CCCCNC(=O)Nc1ccccc1 | -17.3% | – | –
COc1ccc(/C=N/NC(=O)c2ccoc2C)cc1CN1CCN(c2ccc(F)cc2)CC1 | 57% | – | 8.2 µM [rising, partial curve]
CC(C)(CC(=O)O)CC(=O)Nc1ccccc1Oc1ccccc1 | 18.5% | – | –
O=C(O)CSCCn1cccn1 | -42.4% | 2.31 µM [falling, full curve] | 2.31 µM [falling, full curve]
Cc1noc(C)c1C(=O)OCC(=O)c1c(N)n(CC(C)C)c(=O)n(C)c1=O | -10.1% | 29.1 µM [falling, partial curve, poor fit] | 0.103 µM [rising, full curve, poor fit]
O=C(Nc1ccc(Cc2ccncc2)cc1)C1CCC(N2C(=O)C3C4C=CC(C4)C3C2=O)CC1 (stereo not given) | -23.5% | – | –
OC[C@@H](O)[C@@H](O)[C@H](O)[C@H](O)CO | -24.5% | 0.13 µM [falling, full curve, poor fit] | –
N#Cc1ccsc1NC(=O)COC(=O)c1cc2ccccc2cc1O | -19.5% | 5.8 µM [rising, full curve] | –
C/C(=N\NC(=O)C1(C)CC1(Br)Br)c1ccc(NC(=O)C2CCC2)cc1 (stereo not given) | -30% | 29.1 µM [falling, single point] | –
O=C(NCC1CCCN1S(=O)(=O)c1cccs1)c1cccc(Cl)c1 (stereo not given) | 59.6% | – | 18.4 µM [rising, partial curve]
CCOC(=O)Nc1c(C)n(C)n(-c2ccccc2)c1=O | -9.3% | – | 0.164 µM [falling, full curve]
Nc1c(C(=O)c2cccs2)oc2ccccc12 | -17.5% | 0.0184 µM [rising, full curve, poor fit] | –
COc1ccc(C2/C=C\CN(C(=O)c3ccccc3)CC(=O)N2Cc2ccc(F)cc2)cc1 (stereo not given) | -35.5% | 29.1 µM [falling, single point] | 29.1 µM [falling, single point]
CN(C)/C=C(\C#N)C(=O)c1cccnc1Oc1ccc(F)cc1F | – | 29.1 µM [rising, single point] | –
COc1ccc(C2/C=C\CN(C(=O)Oc3ccc(C(F)(F)F)cc3)CC(=O)N2Cc2ccc(F)cc2)cc1 (stereo not given) | 7.57% | 1.64 µM [rising, partial curve, poor fit] | –
COCCNc1ncnc2c1cnn2-c1ccc(Cl)cc1 | -0.101% | 0.00461 µM [rising, full curve, poor fit] | –
Cn1c(=O)[nH]c(=O)c2c1nc(N1CCCCCC1)n2Cc1cccc2ccccc12 | 8.33% | – | –
Cc1cccc(NC(=O)COC(=O)c2ccccn2)c1 | -2.94% | 6.51 µM [rising, single point] | –

Looked up above:
`COc1ccc(C2/C=C\CN(C(=O)c3ccccc3)CC(=O)N2Cc2ccc(F)cc2)cc1` (stereo not given) | AC50 [2]: 29.1 µM [falling, single point]
`O=C(NCC1CCCN1S(=O)(=O)c1cccs1)c1cccc(Cl)c1` (stereo not given) | cell number change: 59.6%
